Assay results taken from the supplement of paper PMC4604168 (melanoma cell lines).
This is one part of the list. Repeats are few or missing, and single values can be far off.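 Imaging used 1,536-well plates; nuclei positive for cleaved PARP by antibody were divided by total DNA-stained nuclei to yield the apoptosis fraction. Doses for screening kept most cells viable, and cell lines differ markedly in resting and induced cleaved-PARP levels.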

Tests used:
Experiment in all cases: cleaved PARP positive nuclei fraction relative to DMSO control; melanoma cells; higher = more apoptosis
Details in all cases: library dose: low library concentration; 72 h
CBRC034 = test system: CBRC034 (line from a melanoma biopsy)
COLO792 = test system: COLO792
COLO800 = test system: COLO800
COLO829 = test system: COLO829
G361 = test system: G361
IPC-298 = test system: IPC-298
IST-MEL1 = test system: IST-MEL1
LB2518-MEL = test system: LB2518-MEL
LOXIMVI = test system: LOXIMVI
MEL-HO = test system: MEL-HO

SMILES | cleaved PARP positive nuclei fraction (CBRC034) [%] | cleaved PARP positive nuclei fraction (COLO792) [%] | cleaved PARP positive nuclei fraction (COLO800) [%] | cleaved PARP positive nuclei fraction (COLO829) [%] | cleaved PARP positive nuclei fraction (G361) [%] | cleaved PARP positive nuclei fraction (IPC-298) [%] | cleaved PARP positive nuclei fraction (IST-MEL1) [%] | cleaved PARP positive nuclei fraction (LB2518-MEL) [%] | cleaved PARP positive nuclei fraction (LOXIMVI) [%] | cleaved PARP positive nuclei fraction (MEL-HO) [%]
Cn1cc(C2=C(c3cn(C4CCN(Cc5ccccn5)CC4)c4ccccc34)C(=O)NC2=O)c2ccccc21 [Enzastaurin] + CCCCCCCCc1ccc(CCC(N)(CO)CO)cc1 [fingolimod] (first compound 0.8 µM, partner dose 2 µM) | 92.1 | 66.5 | 211 | 127 | 97.8 | 42.3 | 60.6 | 99.9 | 59.4 | 53.5
Cn1cc(C2=C(c3cn(C4CCN(Cc5ccccn5)CC4)c4ccccc34)C(=O)NC2=O)c2ccccc21 [Enzastaurin] + O=C(O)[C@@H]1[O][Sb](=[O])([O][Sb]2(=[O])[O][C@H]([C@H](O)CO)[C@H](O)[C@H](C(=O)O)[O]2)[O][C@H]([C@H](O)CO)[C@@H]1O [stibogluconate] (first compound 0.8 µM, partner dose 2 µM) | 66.1 | 31.6 | 39.5 | 99.8 | 144 | 76 | 68.6 | 113 | 70.6 | 74.4
N#CC[C@H](C1CCCC1)n1cc(-c2ncnc3[nH]ccc23)cn1 [ruxolitinib] + C[C@]12O[C@H](C[C@]1(O)CO)n1c3ccccc3c3c4c(c5c6ccccc6n2c5c31)CNC4=O [Lestaurtinib] (first compound 1 µM, partner dose 0.004 µM) | 58.9 | 89.9 | 78.7 | 93.9 | 110 | 89.6 | 69.2 | 83.8 | 69.5 | 84.7
C[C@]12O[C@H](C[C@]1(O)CO)n1c3ccccc3c3c4c(c5c6ccccc6n2c5c31)CNC4=O [Lestaurtinib] + CS(=O)(=O)CCNCc1ccc(-c2ccc3ncnc(Nc4ccc(OCc5cccc(F)c5)c(Cl)c4)c3c2)o1 [lapatinib] (first compound 0.004 µM, partner dose 0.8 µM) | 29.2 | 130 | 50.5 | 94.3 | 117 | 67 | 235 | 120 | 98.4 | 58.7
NC1(c2ccc(-c3nc4ccn5c(=O)[nH]nc5c4cc3-c3ccccc3)cc2)CCC1 + C[As](C)SC[C@H](NC(=O)CC[C@H](N)C(=O)O)C(=O)NCC(=O)O [Darinaparsin] (first compound 0.4 µM, partner dose 0.4 µM) | 143 | 157 | 87.8 | 63.2 | 125 | 87.5 | 63.6 | 182 | 93.6 | 60.4
C[C@]12O[C@H](C[C@]1(O)CO)n1c3ccccc3c3c4c(c5c6ccccc6n2c5c31)CNC4=O [Lestaurtinib] + COc1ccc(Cl)c(Nc2nc3ccccc3nc2NS(=O)(=O)c2cccc(NC(=O)C(C)(C)N)c2)c1 [XL147] (first compound 0.004 µM, partner dose 0.8 µM) | 141 | 79.9 | 246 | 87.8 | 139 | 45.8 | 94.9 | 66.7 | 149 | 181
CC1(C)CCC(c2ccc(Cl)cc2)=C(CN2CCN(c3ccc(C(=O)NS(=O)(=O)c4ccc(N[C@H](CCN5CCOCC5)CSc5ccccc5)c(S(=O)(=O)C(F)(F)F)c4)cc3)CC2)C1 + C[C@]12O[C@H](C[C@]1(O)CO)n1c3ccccc3c3c4c(c5c6ccccc6n2c5c31)CNC4=O [Lestaurtinib] (first compound 0.4 µM, partner dose 0.004 µM) | 77.7 | 271 | 55.2 | 70 | 167 | 150 | 73.5 | 207 | 81.2 | 17.5
N.N.[Cl][Pt][Cl] [cisplatin] + Nc1cccc2c1CN(C1CCC(=O)NC1=O)C2=O [lenalidomide] (first compound 1.6 µM, partner dose 1 µM) | 66.9 | 146 | 83.1 | 93.4 | 86.1 | 179 | 63.9 | 158 | 67.8 | 84
O=C(/C=C/c1cccnc1)NCCCCC1CCN(C(=O)c2ccccc2)CC1 + N.N.[Cl][Pt][Cl] [cisplatin] (first compound 0.01 µM, partner dose 1.6 µM) | 956 | 878 | 403 | 254 | 6570 | 670 | 106 | 156 | 140 | 437
Cn1cc(C2=C(c3cn(C4CCN(Cc5ccccn5)CC4)c4ccccc34)C(=O)NC2=O)c2ccccc21 [Enzastaurin] + Nc1nc(F)nc2c1ncn2[C@@H]1O[C@H](CO)[C@@H](O)[C@@H]1O [fludarabine] (first compound 0.8 µM, partner dose 0.2 µM) | 64.8 | 48 | 93.8 | 29.6 | 31.2 | 42.9 | 68.1 | 227 | 87.4 | 42.6
C[As](C)SC[C@H](NC(=O)CC[C@H](N)C(=O)O)C(=O)NCC(=O)O [Darinaparsin] + Cc1nc(Nc2ncc(C(=O)Nc3c(C)cccc3Cl)s2)cc(N2CCN(CCO)CC2)n1 [dasatanib] (first compound 0.4 µM, partner dose 0.004 µM) | 369 | 104 | 183 | 131 | 112 | 60.1 | 80.1 | 79.3 | 111 | 89
CC[C@]1(O)C[C@H]2CN(CCc3c([nH]c4ccccc34)[C@@](C(=O)OC)(c3cc4c(cc3OC)N(C=O)[C@H]3[C@@](O)(C(=O)OC)[C@H](OC(C)=O)[C@]5(CC)C=CCN6CC[C@]43[C@@H]65)C2)C1 [vincristine] + Cn1cc(C2=C(c3cn(C4CCN(Cc5ccccn5)CC4)c4ccccc34)C(=O)NC2=O)c2ccccc21 [Enzastaurin] (first compound 0.0001 µM, partner dose 0.8 µM) | 68.6 | 117 | 128 | 91.4 | 84.7 | 41.8 | 186 | 116 | 46.8 | 59.1
CC1(C)CCC(c2ccc(Cl)cc2)=C(CN2CCN(c3ccc(C(=O)NS(=O)(=O)c4ccc(N[C@H](CCN5CCOCC5)CSc5ccccc5)c(S(=O)(=O)C(F)(F)F)c4)cc3)CC2)C1 + Cn1cc(C2=C(c3cn(C4CCN(Cc5ccccn5)CC4)c4ccccc34)C(=O)NC2=O)c2ccccc21 [Enzastaurin] (first compound 0.4 µM, partner dose 0.8 µM) | 89.7 | 419 | 156 | 64.7 | 133 | 304 | 80.3 | 523 | 484 | 145
Cn1cc(C2=C(c3cn(C4CCN(Cc5ccccn5)CC4)c4ccccc34)C(=O)NC2=O)c2ccccc21 [Enzastaurin] + Cn1sc(=O)n(Cc2ccccc2)c1=O [TDZD-8] (first compound 0.8 µM, partner dose 0.4 µM) | 61 | 60.2 | 98.9 | 24.9 | 61.3 | 74.8 | 60.2 | 45.6 | 53.8 | 131
CCCCCCCCCCCCCCCCCCOP(=O)([O-])OC1CC[N+](C)(C)CC1 [Perifosine] + Cn1cc(C2=C(c3cn(C4CCN(Cc5ccccn5)CC4)c4ccccc34)C(=O)NC2=O)c2ccccc21 [Enzastaurin] (first compound 0.4 µM, partner dose 0.8 µM) | 164 | 78.1 | 104 | 56.7 | 92.5 | 91 | 495 | 143 | 239 | 56.2
CNC(=O)c1cc(Oc2ccc(NC(=O)Nc3ccc(Cl)c(C(F)(F)F)c3)cc2)ccn1 [sorafenib] + C[As](C)SC[C@H](NC(=O)CC[C@H](N)C(=O)O)C(=O)NCC(=O)O [Darinaparsin] (first compound 0.4 µM, partner dose 0.4 µM) | 81.8 | 81.1 | 158 | 111 | 112 | 101 | 39.5 | 124 | 371 | 87.6
Cc1ccc(Nc2nccc(N(C)c3ccc4c(C)n(C)nc4c3)n2)cc1S(N)(=O)=O [Pazopanib] + N.N.[Cl][Pt][Cl] [cisplatin] (first compound 0.4 µM, partner dose 1.6 µM) | 20.5 | 62.6 | 74.4 | 79.6 | 41.1 | 149 | 128 | 156 | 79.5 | 116
COc1cc([C@@H]2c3cc4c(cc3[C@@H](O[C@@H]3O[C@@H]5CO[C@@H](C)O[C@H]5[C@H](O)[C@H]3O)[C@H]3COC(=O)[C@H]23)OCO4)cc(OC)c1O [etoposide] + C[C@]12O[C@H](C[C@]1(O)CO)n1c3ccccc3c3c4c(c5c6ccccc6n2c5c31)CNC4=O [Lestaurtinib] (first compound 0.02 µM, partner dose 0.004 µM) | 59.1 | 122 | 120 | 51.2 | 72.2 | 136 | 58.2 | 164 | 100 | 35.8
C[As](C)SC[C@H](NC(=O)CC[C@H](N)C(=O)O)C(=O)NCC(=O)O [Darinaparsin] + C[C@]1(c2nc3c(C(N)=O)cccc3[nH]2)CCCN1 [Veliparib] (first compound 0.4 µM, partner dose 1.4 µM) | 188 | 116 | 127 | 135 | 32.9 | 88 | 109 | 63.8 | 88.5 | 111
N.N.[Cl][Pt][Cl] [cisplatin] + O=C(O)c1ccc2c(c1)nc(Nc1cccc(Cl)c1)c1ccncc12 [CX4945] (first compound 1.6 µM, partner dose 0.4 µM) | 345 | 96.5 | 140 | 151 | 234 | 106 | 59.9 | 104 | 69.7 | 137
CCN(CC)CCNC(=O)c1c(C)[nH]c(/C=C2\C(=O)Nc3ccc(F)cc32)c1C [sunitinib] + N.N.[Cl][Pt][Cl] [cisplatin] (first compound 0.4 µM, partner dose 1.6 µM) | 33.3 | 45.4 | 89.9 | 100 | 109 | 86.9 | 39.4 | 81.8 | 189 | 75.4

An excerpt from the list above:
SMILES | cleaved PARP positive nuclei fraction (CBRC034) [%] | cleaved PARP positive nuclei fraction (COLO792) [%] | cleaved PARP positive nuclei fraction (COLO800) [%] | cleaved PARP positive nuclei fraction (COLO829) [%] | cleaved PARP positive nuclei fraction (G361) [%] | cleaved PARP positive nuclei fraction (IPC-298) [%] | cleaved PARP positive nuclei fraction (IST-MEL1) [%] | cleaved PARP positive nuclei fraction (LB2518-MEL) [%] | cleaved PARP positive nuclei fraction (LOXIMVI) [%] | cleaved PARP positive nuclei fraction (MEL-HO) [%]
COc1cc([C@@H]2c3cc4c(cc3[C@@H](O[C@@H]3O[C@@H]5CO[C@@H](C)O[C@H]5[C@H](O)[C@H]3O)[C@H]3COC(=O)[C@H]23)OCO4)cc(OC)c1O [etoposide] + C[C@]12O[C@H](C[C@]1(O)CO)n1c3ccccc3c3c4c(c5c6ccccc6n2c5c31)CNC4=O [Lestaurtinib] (first compound 0.02 µM, partner dose 0.004 µM) | 59.1 | 122 | 120 | 51.2 | 72.2 | 136 | 58.2 | 164 | 100 | 35.8
C[As](C)SC[C@H](NC(=O)CC[C@H](N)C(=O)O)C(=O)NCC(=O)O [Darinaparsin] + C[C@]1(c2nc3c(C(N)=O)cccc3[nH]2)CCCN1 [Veliparib] (first compound 0.4 µM, partner dose 1.4 µM) | 188 | 116 | 127 | 135 | 32.9 | 88 | 109 | 63.8 | 88.5 | 111
N.N.[Cl][Pt][Cl] [cisplatin] + O=C(O)c1ccc2c(c1)nc(Nc1cccc(Cl)c1)c1ccncc12 [CX4945] (first compound 1.6 µM, partner dose 0.4 µM) | 345 | 96.5 | 140 | 151 | 234 | 106 | 59.9 | 104 | 69.7 | 137
CCN(CC)CCNC(=O)c1c(C)[nH]c(/C=C2\C(=O)Nc3ccc(F)cc32)c1C [sunitinib] + N.N.[Cl][Pt][Cl] [cisplatin] (first compound 0.4 µM, partner dose 1.6 µM) | 33.3 | 45.4 | 89.9 | 100 | 109 | 86.9 | 39.4 | 81.8 | 189 | 75.4
